# Reference: patent US20220363770A1
# Target: programmed cell death protein 1 (PD1) extracellular domain
# Experiment: yeast-displayed Fab binding screen against PD1 ECD
row,Binder,binding
1,"anti-CGRP receptor variant 10, yeast-displayed Fab (Fab, V domains shown) VH: QVQLVESGGGVVQPGRSLRLSCAASGFFFGSYGMHWVRQAPGKGLEWVAVISFAGEIEHYVDSVKGRFTISRDNSKNTLFLQMNSLRAEDTAVYYCARDRLNYYESSGYYHYKYYGMAVWGQGTTVTVSS VL: QSVLTQPPSVSAAPGQKVTISCSGSSSNIGNNYVSWYQQLPGTAPKLLIYDNNKRPSGIPDRFSGSKSGTSATLGITGLQTGDEADYYCGTWDSRLSAVVFGGGTKLTVLG",no binding
2,"anti-CGRP receptor variant 02, yeast-displayed Fab (Fab, V domains shown) VH: QVQLVESGGGVVQPGRSLRLSCAASGFTFSSFGMHWVRQAPGKGLEWVAVISFDGSIKYSVDSVKGRFTISRDNSKNTLFLQMNSLRAEDTAVYYCARDRLNYYESSGYYHYKYYGMAVWGQGTTVTVSS VL: QSVLTQPPSVSAAPGQKVTISCSGSRSNIGIKAVSWYQQLPGTAPKLLIYDNNKRPSGIPDRFSGSKSGTSATLGITGLQTGDEADYYCGTWDSRLSAVVFGGGTKLTVLG",no binding
3,"anti-CGRP receptor variant 14, yeast-displayed Fab (Fab, V domains shown) VH: QVQLVESGGGVVQPGRSLRLSCAASGFTFSSFGMHWVRQAPGKGLEWVAVISFDGSIKYSVDSVKGRFTISRDNSKNTLFLQMNSLRAEDTAVYYCARDRLNYYESSGYYHYKYYGMAVWGQGTTVTVSS VL: QSVLTQPPSVSAAPGQKVTISCSGSSSNIGNNYVSWYQQLPGTAPKLLIYDNNKRPSGIPDRFSGSKSGTSATLGITGLQTGDEADYYCGTWDSWHRVVTFGGGTKLTVLG",no binding
4,"anti-CGRP receptor variant 08, yeast-displayed Fab (Fab, V domains shown) VH: QVQLVESGGGVVQPGRSLRLSCAASGFTFSSFGMHWVRQAPGKGLEWVAVISFDGSIKYSVDSVKGRFTISRDNSKNTLFLQMNSLRAEDTAVYYCARDRLNYYESSGYYHYKYYGMAVWGQGTTVTVSS VL: QSVLTQPPSVSAAPGQKVTISCSGSYSNIGWWPVSWYQQLPGTAPKLLIYDNNKRPSGIPDRFSGSKSGTSATLGITGLQTGDEADYYCGTWDSRLSAVVFGGGTKLTVLG",no binding
5,"anti-CGRP receptor variant 04, yeast-displayed Fab (Fab, V domains shown) VH: QVQLVESGGGVVQPGRSLRLSCAASGFTFSSFGMHWVRQAPGKGLEWVAVISFDGSIKYSVDSVKGRFTISRDNSKNTLFLQMNSLRAEDTAVYYCARDRLNYYRSFGYYGYHYYGMAVWGQGTTVTVSS VL: QSVLTQPPSVSAAPGQKVTISCSGSSSNIGNNYVSWYQQLPGTAPKLLIYDNNKRPSGIPDRFSGSKSGTSATLGITGLQTGDEADYYCGTWDSRLSAVVFGGGTKLTVLG",no binding
6,"anti-CGRP receptor variant 15, yeast-displayed Fab (Fab, V domains shown) VH: QVQLVESGGGVVQPGRSLRLSCAASGFTFSSFGMHWVRQAPGKGLEWVAVISFDGSIKYSVDSVKGRFTISRDNSKNTLFLQMNSLRAEDTAVYYCARDRLNYYESSGYYHYKYYGMAVWGQGTTVTVSS VL: QSVLTQPPSVSAAPGQKVTISCSGSSSNIGNNYVSWYQQLPGTAPKLLIYDNNKRPSGIPDRFSGSKSGTSATLGITGLQTGDEADYYCGTWDWWRKAVIFGGGTKLTVLG",no binding
7,"anti-CGRP receptor variant 05, yeast-displayed Fab (Fab, V domains shown) VH: QVQLVESGGGVVQPGRSLRLSCAASGFTFSSFGMHWVRQAPGKGLEWVAVISFDGSIKYSVDSVKGRFTISRDNSKNTLFLQMNSLRAEDTAVYYCARDRLNYYESSGYYHYKYYGMAVWGQGTTVTVSS VL: QSVLTQPPSVSAAPGQKVTISCSGSFSNIGRSTVSWYQQLPGTAPKLLIYDNRWRAGGIPDRFSGSKSGTSATLGITGLQTGDEADYYCGTWDYQWKAVVFGGGTKLTVLG",no binding
8,"anti-CGRP receptor variant 12, yeast-displayed Fab (Fab, V domains shown) VH: QVQLVESGGGVVQPGRSLRLSCAASGFTFSSFGMHWVRQAPGKGLEWVAVISFDGSIKYSVDSVKGRFTISRDNSKNTLFLQMNSLRAEDTAVYYCARDRLNYYESSGYYHYKYYGMAVWGQGTTVTVSS VL: QSVLTQPPSVSAAPGQKVTISCSGSRSNIGRYSVSWYQQLPGTAPKLLIYDNRYRAQGIPDRFSGSKSGTSATLGITGLQTGDEADYYCGTWDWATTSVVFGGGTKLTVLG",no binding
9,"anti-CGRP receptor variant 13, yeast-displayed Fab (Fab, V domains shown) VH: QVQLVESGGGVVQPGRSLRLSCAASGFTFSSFGMHWVRQAPGKGLEWVAVISFDGSIKYSVDSVKGRFTISRDNSKNTLFLQMNSLRAEDTAVYYCARDRLNYYESSGYYHYKYYGMAVWGQGTTVTVSS VL: QSVLTQPPSVSAAPGQKVTISCSGSRSNIGRRTVSWYQQLPGTAPKLLIYDNNKRPSGIPDRFSGSKSGTSATLGITGLQTGDEADYYCGTWDSRLSAVVFGGGTKLTVLG",no binding
10,"anti-CGRP receptor variant 06, yeast-displayed Fab (Fab, V domains shown) VH: QVQLVESGGGVVQPGRSLRLSCAASGFTFSSFGMHWVRQAPGKGLEWVAVISFDGSIKYSVDSVKGRFTISRDNSKNTLFLQMNSLRAEDTAVYYCARDRLNYYESSGYYHYKYYGMAVWGQGTTVTVSS VL: QSVLTQPPSVSAAPGQKVTISCSGSYSNIGRKSVSWYQQLPGTAPKLLIYDNNKRPSGIPDRFSGSKSGTSATLGITGLQTGDEADYYCGTWDSRLSAVVFGGGTKLTVLG",no binding
11,"anti-CGRP receptor variant 01, yeast-displayed Fab (Fab, V domains shown) VH: QVQLVESGGGVVQPGRSLRLSCAASGFTFSSFGMHWVRQAPGKGLEWVAVISFDGSIKYSVDSVKGRFTISRDNSKNTLFLQMNSLRAEDTAVYYCARDRLNYYESSGYYHYKYYGMAVWGQGTTVTVSS VL: QSVLTQPPSVSAAPGQKVTISCSGSYSNIGRYSVSWYQQLPGTAPKLLIYDNNKRPSGIPDRFSGSKSGTSATLGITGLQTGDEADYYCGTWDSRLSAVVFGGGTKLTVLG",no binding
12,"anti-CGRP receptor variant 09, yeast-displayed Fab (Fab, V domains shown) VH: QVQLVESGGGVVQPGRSLRLSCAASGFTFSSFGMHWVRQAPGKGLEWVAVISFAGEIDYYVDSVKGRFTISRDNSKNTLFLQMNSLRAEDTAVYYCARDRLNYYESSGYYHYKYYGMAVWGQGTTVTVSS VL: QSVLTQPPSVSAAPGQKVTISCSGSSSNIGNNYVSWYQQLPGTAPKLLIYDNNKRPSGIPDRFSGSKSGTSATLGITGLQTGDEADYYCGTWDSRLSAVVFGGGTKLTVLG",no binding
13,"anti-CGRP receptor variant 07, yeast-displayed Fab (Fab, V domains shown) VH: QVQLVESGGGVVQPGRSLRLSCAASGFYFMTYGMHWVRQAPGKGLEWVAVISFDGSIKYSVDSVKGRFTISRDNSKNTLFLQMNSLRAEDTAVYYCARDRLNYYESSGYYHYKYYGMAVWGQGTTVTVSS VL: QSVLTQPPSVSAAPGQKVTISCSGSSSNIGNNYVSWYQQLPGTAPKLLIYDNNKRPSGIPDRFSGSKSGTSATLGITGLQTGDEADYYCGTWDSRLSAVVFGGGTKLTVLG",no binding

# These are yes or no findings as the source states them, for the method shown.
